According to PubChem BioAssay AID1508600 (Functional Genomics Laboratory (NCATS/FGL), 2020):
Among all 53,000 sequences or so, about 3,700 (7%) were called active.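 How the source made its calls: active means gene knockdowns whose robust z-score for IL-1 alpha signal is at least 2 or at most -2, so actives lie on both sides; inactive means the rest.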 The list shows a part of the results.

Experiment: Components of the Cytosolic LPS Sensing Pathway: Gene Identification via Genome-wide siRNA Screen;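 further: robust z of the log signal after scaling to non-targeting control siRNA wells of the plate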
Settings: RAW264.7 macrophages, IL-1a HTRF, actives lie on both sides, screened at 100 nM (by protocol), cells primed 5 h with Pam3CSK4 first
In short: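 Mouse macrophage line RAW264.7 is transfected with siRNA (100 nM final), grown 48h, primed with TLR ligand Pam3CSK4 5 h and given intracellular LipidA 24 h. IL-1a in supernatant is read by HTRF and viability by luminescence.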

z-score, active:
GGUAAAGGUAAACUUAUACTT against Vmn1r148 -4.68
GGCUGGUAUCUUUCAGAGUTT against Cox6c 2.2
CCCAGAACACCGUAUACUUTT against Itga3 3.95
CCACCUGAAUCAUUACUCATT against Rdh19 -3.29
GGAGGAUAAGGAUACAGUATT against Cspg5 2.27
GGCCUAUUGUAAAAACCCATT against Taf1b -2.56
GGUGAUAAUUAAUGUCUUGTT against Naip1 2.08

z-score, inactive:
GCUAUCUUGGUGGAUCUAGTT against Tubb5 -0.818
GCAGAAAUUAACAAGUCUCTT against Kif2c 0.816
GGCAGAUUUGGGUAAAAUUTT against Eif2s3y -0.797
GGGAAUGUUUUCAAAUUCCTT against Cpa6 1.07
GGGUUUAUAAAACUGAAGUTT against Cav2 0.672
CCUGUCACAGAUGUAUGUGTT against Rnf149 0.331
CGGCUAAAUGCAAGUAAAGTT against Rgma -1.07
GGACACCACGGAGUAUUUUTT against Mgat3 0.597
GGAUGACAGUGACCAAAGGTT against Prag1 0.00782
GGUUGUCUUUCAUCGACUCTT against Fbxo5 -0.000863
CCAAUUUCAUACGGCAGUCTT against Slc66a1 0.574
CCAGCUAAUCCCAACAUGCTT against Pum1 -1.54
CCUUGUGUAAGAGGUUUUUTT against Helz 1.88
GCAUCAGGAUUCUGAUAACTT against Mrgpra6 0.15
GCCUUCUGCUCCGAAGAAGTT against Rpl13 -0.444
CCAUAGAUAUUUACGGAAATT against Slc9a4 0.746
CGAGCUAUCCACUUAAUCATT against Irak3 -0.859
GGCACUGUGUGUCAGACAATT against Nt5dc1 1.3
CGAUUAGUCUCUCAUUAUUTT against Ipo11 -1.12
CCAAGUCGUAAUCUAGAAGTT against Scn7a 0.191
GGACCAAGCUGUUAUUAACTT against Dhodh 0.46
GAUAUUUCCACUCUAGCACTT against Fcrlb -0.404
CUCCCAAAUGGAAUUGCAUTT against Rc3h1 -1.84
GGAGGGAGAACUCAUCGAATT against Nudt14 -0.583
CGCGAAAUAUGUGUGUUUATT against Nr4a2 1.21
GCCCUAUCUACGAUGAAAATT against Scamp2 -0.197
GCACGAAGAGUUAAUGGAGTT against Aym1 -0.911
GGGUGGUCAGGAAAAUCAUTT against Notch1 0.298
CGAAGACACCGAUAUUUCUTT against Slc10a4 0.906
UCUUACAAACUAGCUCUCCTT against Crabp2 -0.777
GCAUGGACAGGUCUAAUUGTT against 9530085L02Rik -0.415
GGUCUGGAGCCAGAACUCUTT against Trmt12 0.754
GCUGUUUGACUACAUAAUCTT against Melk 0.275
CGCUCAUAGAUGAUGCUCUTT against Wbp1l 1.48
GGUGCUCCUAUCCUGUUCATT against Lhfp -0.331
GGAUUGCCGAAACUGUACATT against Ucp1 0.567
GGUAUAUAGGGCUGUGGCUTT against Pigs -0.822
GGCUAUGAAGAAAACAUGUTT against Gpx7 0.0025
CCAGACUAUUUAACUUGAGTT against Adrb2 0.12
GGAGAGACAUCCAAAAGUATT against H60a 0.658
GGAGAUAUGUUCAUUGUUCTT against Rasa1 1.01
GGACUCUUACGCCUCAUCATT against Zfp955a -0.945
GCAAUCGAGCUGAAACUAGTT against Hat1 0.721
GGACAAAUGGUAUUGUAGUTT against Coa5 -1.72
GCUGAUCCUUAACUUAAAGTT against Adam1b -0.242
GGAAAAAGCCCUUGAACAUTT against Tnnt1 1.48
GCCUUUUGAGUAUAACGAATT against Zfp248 -0.228
GGCUGAAUAGUCCUAGCAGTT against Poglut3 -0.19
GGAAGCCAAAGAAAAGUUCTT against Ski -0.893
GGAAAUUGCAUGUGAAAUUTT against Prrc2b -0.256
GGAGAGCACAAAGAACAUUTT against Med6 0.62
GGCCUUUUUACCUGUGCACTT against Pigx -0.946
GGACAAGUAUAGCCAUCUUTT against Spag7 -0.263
GGUUCUUUUCAGCUCAUUATT against Toporsl -0.0962
GGGAGAAAGAUUGUAACUATT against 1110032A03Rik -1.05
GGGUUAAAUGCAAUGCAGCTT against Celf1 0.301
GCUUGGUUGGCCUUUUCCATT against Olfr320 -1.04
GCUUAAGUGCAGUAAUAUCTT against 4932411N23Rik -1.65
GGCCAACAUGCUAUACUUCTT against Stat2 0.473
GGAUGAUACCUCCAAUAACTT against Mucl1 -1.54
CCCACAGGACUCAUUAACATT against Rab4a -1.27
GGAUCUACUAGGAAAGAAATT against Serpini1 -0.0499
GCCUUUAUACAAUUAGACUTT against Has3 0.107
CGUAAGGCCUAAGGUUAUUTT against Leng1 1.51
GGCAGAAGACCAAAAUUGGTT against Pmm2 -1.5
GGGAGUGUAUAAACCUCGGTT against Vdac2 0.259
GCCUAGAAUCAAUGGAACCTT against Olfr402 0.784
GGUGAUCUAUCCCUAUUCATT against Ubash3b -0.356
CCUGAUACUAACAAGGAAATT against Afmid -0.625
GGUUUCCAACAACAUCAAATT against Hsd17b12 -0.0368
GGAACCAAUCAGUUGGUUATT against Taf7 0.395
GCCGAUGAACCAAUGGAACTT against Psma1 -0.707
CCAGAAAUUGACAAAAAGUTT against Etfa 0.492
GGAAAUGGGUCUUGAAGUUTT against Lrrc58 -0.304
GGAGAUCUUCAACUGCCACTT against Rps6kl1 0.842
GCCUCCUGAAUGAUGACAUTT against Klk1b24 -0.97
GGGUAAACUAUUUGUUGUUTT against Arl6ip6 0.899
GGAUUGUUCUUUCUUUCUCTT against Stac -0.00245
GGGAUUCCUAUUUCACAUCTT against Gemin8 -0.733
CCCAAUGGCAAUUUUUAGATT against Slc22a22 -0.846
GGAAGUAACCACAUCCUAUTT against Epn2 -0.628
GGGAAUGGGUGUUCAUCCATT against Tnf 0.68
GCUGAGCUGCGCUUAUUGGTT against Fes -1.02
CCUAUAUGCGCUAUUUGAATT against Myo9a 0.513
GGCCCUGUAGAAGACAAUGTT against Plxna1 -0.06
GCACUCGUCGUUUGGCUAUTT against Pitx1 0.213
GGAAAAAGACCACAGCCAGTT against Oaz3 -1.75
GCCAUAAAAGCCUCAUUAGTT against C130021I20Rik -0.2
GGAGCUGGUGCUGAAGAACTT against Cnppd1 0.841
GGUCCCUUCUUCUCAAGGUTT against Olfr1 1.94
CCCAGGACAAAAUAGUGUCTT against Olfr164 -0.68
GGUUUUGAAGUGAUUGAAGTT against Tjp2 -0.218
GGAGAUGAUGUCACCUACATT against Cttnbp2nl 1.27
GGAAGAAAACAAAGACGGCTT against Mxd4 0.0149
GCCACUUAGAAUGACCUAATT against Dpcd -1.63
GCCGCCACAAAGUUUGCAUTT against Spock3 0.0414
GGUGACUUCAGAUGUGGCCTT against Ehmt2 -1.29
CCCACUAUGAUCCACCUAGTT against Hnrnph2 -0.307
GGUUGAAAAUGUUGAUCGUTT against Rnd3 -0.398
GGGCGAAGAUACAAGUGACTT against Tnp2 -1.76
